Some of these results come from one statement about several compounds together.
Molecular target: T1, GABAA Cl channel
T1 construct: other: determined graphically, increasing concentr; other: 10^-4M, bovine hippocampus
Assay type: binding, bovine

| SMILES | KD lower than that for 2,6-diisopropyl phenol [fold] |
| --- | --- |
| CC(C)c1cc(C(=O)c2ccc(C(F)(F)F)cc2)cc(C(C)C)c1O [Compound 2] | > 10 |
| CC(C)c1cc(C(=O)c2ccc(I)cc2)cc(C(C)C)c1O [Compound 11, (4-hydroxy-3,5-diisopropylphenyl)-(4-iodophenyl)methanone] | > 10 |

Source: patent publication US8026275B2 (priority 2005, dated 2011)
